Reference: PubChem BioAssay AID743255 (National Center for Advancing Translational Sciences (NCATS), 2014)
Screen size: about 390,000 compounds; about 910 (0.23%) were called active. The inconclusive results got no clear call from the source; some entries with a clear call stand among them for comparison. The call rests on the fitted dose curve; in most records, active means well fitted inhibition curve with a large enough effect; inconclusive means small, poorly fitted or top-dose-only effect; inactive means no such curve, though single readings can be large or run the other way. A potency beside an inconclusive call is a rough fit, not a confirmed value.

Protein sequences, listed by entry. Tags and fused reporters are not part of them. Lines headed by an entry give the natural chain unless they say otherwise; changes in a name come on top.
UniProt O94782: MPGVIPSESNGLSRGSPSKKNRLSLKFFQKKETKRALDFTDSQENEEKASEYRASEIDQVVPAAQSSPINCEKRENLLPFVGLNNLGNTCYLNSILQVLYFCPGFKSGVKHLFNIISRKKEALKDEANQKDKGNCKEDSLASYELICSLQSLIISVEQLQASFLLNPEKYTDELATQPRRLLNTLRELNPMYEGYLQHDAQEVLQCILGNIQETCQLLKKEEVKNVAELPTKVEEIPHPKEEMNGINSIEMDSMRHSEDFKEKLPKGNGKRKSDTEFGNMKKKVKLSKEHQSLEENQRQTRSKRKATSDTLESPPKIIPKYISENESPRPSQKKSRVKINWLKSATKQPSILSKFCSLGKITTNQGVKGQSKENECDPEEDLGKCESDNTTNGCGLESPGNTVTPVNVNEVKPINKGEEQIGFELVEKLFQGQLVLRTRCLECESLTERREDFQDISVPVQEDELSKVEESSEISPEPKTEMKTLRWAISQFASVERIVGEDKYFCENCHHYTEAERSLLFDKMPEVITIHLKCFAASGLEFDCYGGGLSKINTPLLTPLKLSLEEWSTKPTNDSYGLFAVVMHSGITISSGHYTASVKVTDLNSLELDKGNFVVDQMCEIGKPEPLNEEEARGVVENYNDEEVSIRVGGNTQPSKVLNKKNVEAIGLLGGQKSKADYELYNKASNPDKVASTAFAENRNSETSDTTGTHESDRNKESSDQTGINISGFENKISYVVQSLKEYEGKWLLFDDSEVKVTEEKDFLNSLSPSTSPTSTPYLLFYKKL

target: Ubiquitin carboxyl-terminal hydrolase 1 (Homo sapiens) (UniProt O94782); assay: Inhibitors of USP1/UAF1: Primary Screen; conditions: recombinant USP1/UAF1, Ub-Rhodamine cleavage fluorescence; activity change, negative = inhibition: at 57.1 µM (top of the series); further: nearly all actives have a fitted effect of over 60% in size
Summary of the method: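 USP1/UAF1 complex at 1 nM was preincubated with compound for 15 min at room temperature, then Ub-Rho substrate (150nM final) was added. Fluorescence (480/540 nm) was read kinetically, 6 reads every 60 seconds.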
On the % scale 0 is the no-effect control and ±100 the full control effect; potency means the concentration at half of the fitted maximal effect.

| Structure (SMILES) | Potency | activity change, negative = inhibition |
| --- | --- | --- |
| Cc1ccc(CN(C(=O)COc2ccc(C(C)(C)C)cc2)C2CCS(=O)(=O)C2)o1 (stereo unspecified) | inconclusive: 0.126 µM [inhibitor, full curve, poor fit] | – |
| COc1ccc(CCC(=O)NNC(=O)c2ccc(F)cc2)cc1 | inconclusive: 10 µM [inhibitor, single point] | – |
| COc1cc2cc(CNc3ccc(C)cc3)c(=O)n(CC(=O)Nc3ccc(C(C)C)cc3)c2cc1OC | inconclusive: 22.4 µM [inhibitor, partial curve, poor fit] | – |
| O=C(CCCn1c(=O)c2sccc2n(Cc2ccc(F)cc2Cl)c1=O)NCc1ccc2c(c1)OCO2 | inconclusive: 0.562 µM [inhibitor, full curve, poor fit] | – |
| COc1ccc2cc(CNc3ccc(C)cc3)c(=O)n(CC(=O)Nc3ccc(OC)c(Cl)c3)c2c1 | inconclusive: 28.2 µM [inhibitor, partial curve] | – |
| CC1CCC2(CC1)NC(=O)N(CC(=O)NC1(C#N)CCCCC1)C2=O (stereo unspecified) | – | inactive: -16.4% |
| Oc1c(Br)cc(Br)cc1CNc1cccc2cccnc12 | inconclusive: 31.6 µM [inhibitor, partial curve] | – |
| O=C(CN1CCOCC1)N/N=C/c1ccc(-c2cccc(Cl)c2Cl)o1 | inconclusive: 11.2 µM [inhibitor, partial curve] | – |
| NC(=O)CSc1ncc2c(n1)-c1ccccc1N(Cc1ccc(Cl)cc1)S2(=O)=O | inconclusive: 14.1 µM [inhibitor, partial curve, poor fit] | – |
| COc1ccc2[nH]c3c(c2c1)CCN1C(=O)C(CC(=O)NCc2ccc(OC)c(OC)c2)C[C@H](C(=O)N(C(C)C)C(C)C)[C@@]31C (stereo partly specified) | inconclusive: 39.8 µM [inhibitor, partial curve, poor fit] | – |
| O=C(N/N=C/c1cccnc1)c1ccc(Cl)c(Cl)c1 | – | inactive: -14% |
| Cc1ccc(C)c(N2CCN(CCCNC(=O)c3ccc4nc(N5CCCCC5)sc4c3)CC2)c1 | inconclusive: 28.2 µM [inhibitor, partial curve] | – |
| COc1cccc(CNC(=O)CSC2=Nc3ccccc3C3=NC(C(C)C)C(=O)N23)c1 (stereo unspecified) | inconclusive: 39.8 µM [inhibitor, partial curve, poor fit] | – |
| CCCCCc1c2c(cc(O)c1C(=O)O)OC(=O)c1cc(C(=O)CCCC)c(OC)cc1O2 | – | inactive: -24% |
| CCC(C)[C@H]1CNCCN1CCC12CC3CC(CC(C3)C1)C2 (stereo partly specified) | – | inactive: -13.2% |
| CCC(NC(=O)Nc1cc(OC)ccc1OC)c1c(-n2cccc2)sc2c1CCN(CC)C2 (stereo unspecified) | inconclusive: 0.398 µM [inhibitor, full curve, poor fit] | – |
| N#Cc1ccc(CSc2nnc(NC(=O)c3ccc4ncsc4c3)s2)cc1 | inconclusive: 39.8 µM [inhibitor, partial curve] | – |
| O=C(NC1CCCCCC1)c1ccc(CS(=O)(=O)Cc2ccccc2F)o1 | inconclusive: 5.62 µM [inhibitor, full curve, poor fit] | – |
| O=C(NCc1ccc2c(c1)CCN2C(=O)c1ccc(F)cc1)c1ccco1 | inconclusive: 0.282 µM [inhibitor, full curve, poor fit] | – |
| Cc1cc(Nc2ccc(Cl)cc2C)nc(-n2nc(C)cc2C)n1 | inconclusive: 5.62 µM [inhibitor, partial curve] | – |
| COCC(C)n1c(C)cc(C(=O)CSc2cc(C)c3ccccc3n2)c1C (stereo unspecified) | inconclusive: 50.1 µM [inhibitor, partial curve, poor fit] | – |
| Cc1cccc(Cn2c(C)c(CNC3CCCCCC3)c(C(=O)O)c2C)c1 | – | inactive: -19.8% |

A second format for some results above:
COc1ccc2cc(CNc3ccc(C)cc3)c(=O)n(CC(=O)Nc3ccc(OC)c(Cl)c3)c2c1
  Potency: inconclusive: 28.2 µM [inhibitor, partial curve]
CC1CCC2(CC1)NC(=O)N(CC(=O)NC1(C#N)CCCCC1)C2=O (stereo unspecified)
  activity change, negative = inhibition: inactive: -16.4%
Oc1c(Br)cc(Br)cc1CNc1cccc2cccnc12
  Potency: inconclusive: 31.6 µM [inhibitor, partial curve]
O=C(CN1CCOCC1)N/N=C/c1ccc(-c2cccc(Cl)c2Cl)o1
  Potency: inconclusive: 11.2 µM [inhibitor, partial curve]

(further entries)

| Structure (SMILES) | Potency | activity change, negative = inhibition |
| --- | --- | --- |
| CCN(CC)CCN(C(=O)c1ccc2c(c1)OCCO2)c1nc2c(Cl)cccc2s1 | – | inactive: -11.7% |
| O=[N+]([O-])c1cc(F)c2cccnc2c1O | inconclusive: 31.6 µM [inhibitor, partial curve] | – |
| Cc1ccc(N2Cc3ccccc3OC(C)C2=O)cc1 (stereo unspecified) | inconclusive: 5.01 µM [inhibitor, partial curve] | – |
| O=C1NC(c2cccs2)Nc2sc3c(c21)CCCC3 (stereo unspecified) | – | inactive: -4.63% |
| c1ccc2cc3c(NCCN4CCOCC4)ccnc3cc2c1 | inconclusive: 25.1 µM [inhibitor, partial curve] | – |
| COc1ccc(OC)c(C(=O)c2coc3ccc(O)cc23)c1 | – | inactive: -7.97% |
| O=C(CSc1nc2c([nH]c3ccccc32)c(=O)n1-c1cccc(Cl)c1)N1CCOCC1 | inconclusive: 0.794 µM [inhibitor, full curve, poor fit] | – |
| Cc1ccc(NC(=O)CC2SC(=O)N(c3ccccc3)C2=O)cc1 (stereo unspecified) | – | inactive: -21.4% |
| CCOc1ccc(NC(=O)NCc2ccc3c(c2)CCN3C(C)=O)cc1 | inconclusive: 56.2 µM [inhibitor, partial curve, poor fit] | – |
| Cc1cc(C)n(-c2nc3ccccc3nc2N2CCN(c3cccc(C)c3C)CC2)n1 | inconclusive: 35.5 µM [inhibitor, single point] | – |
| CC1C(=O)N(Cc2cn(CCC3OCCCO3)nn2)CCS(=O)(=O)N1Cc1ccc(-c2ccc(F)cc2)cc1 (stereo unspecified) | inconclusive: 0.316 µM [inhibitor, full curve] | – |
| CCOC(=O)N1CCc2c(sc3c2C(=O)NC(c2cc(OC)c(O)c(OC)c2)N3)C1 (stereo unspecified) | inconclusive: 39.8 µM [inhibitor, partial curve, poor fit] | – |
| Cc1cc(C(=O)CSc2nnnn2-c2ccccc2)c(C)n1-c1ccc2c(c1)OCO2 | – | inactive: -7.37% |
| COc1cccc(CNC(=O)c2cc3cc(C)ccc3n2C)c1 | – | inactive: -14.4% |
| CCCN1C(=O)/C(=C\C=C2/C=CN(CC)c3ccccc32)SC1=S | inconclusive: 22.4 µM [inhibitor, partial curve] | – |
| CCOc1ccc(C2c3[nH]c4ccccc4c3C[C@H]3C(=O)N(C4CC4)CC(=O)N23)cc1OC (stereo partly specified) | inconclusive: 11.2 µM [inhibitor, full curve, poor fit] | – |
| CCCN(C(=O)c1c(C)oc2ncn(CC(C)C)c(=O)c12)c1ccccc1C | – | inactive: -28.7% |
| O=C(O)c1ccccc1N/N=C/c1cc(Br)cc(Br)c1O | inconclusive: 35.5 µM [inhibitor, single point] | – |
| O=C(NC1CC1)c1sc2ccccc2c1Cl | – | inactive: -22.1% |
| Cc1nc(N2CCCCC2)sc1C(=O)c1ccc(SCCO)c([N+](=O)[O-])c1 | – | inactive: -9.07% |
| Cc1ccc(C)c2[nH]c(=O)c(CCNC(=O)CCc3ccccc3)cc12 | inconclusive: 50.1 µM [inhibitor, partial curve, poor fit] | – |
| O=[N+]([O-])c1cc(Cl)c(O)c2ncccc12 | inconclusive: 50.1 µM [inhibitor, partial curve, poor fit] | – |

| Structure (SMILES) | Potency | activity change, negative = inhibition |
| --- | --- | --- |
| Cc1ccc(-n2c(=O)c3ccc(C(=O)NCc4ccccc4Cl)cc3n(Cc3cccc(F)c3)c2=O)cc1 | – | inactive: -10.7% |
| Cc1nn(C)cc1CNCc1ccc(OCC(O)CN(C)Cc2ccccc2)cc1 (stereo unspecified) | – | inactive: -12.2% |
| COc1ccnc(Oc2ccc(F)cc2)c1C(=O)N/C=N/OCc1c(Cl)cccc1Cl | – | inconclusive: -5.8% [inhibitor] |
| Nc1ccc2c(O)cc(S(=O)(=O)O)cc2c1 | inconclusive: 44.7 µM [inhibitor, partial curve, poor fit] | – |
| CCCCNC(=O)COC(=O)c1c2c(nc3ccccc13)/C(=C\c1cccs1)CC2 | inconclusive: 8.91 µM [inhibitor, full curve, poor fit] | – |
| COc1ccc(NS(=O)(=O)c2cc([N+](=O)[O-])ccc2NN=Cc2ccccc2OCC(=O)O)cc1 | inconclusive: 44.7 µM [inhibitor, partial curve, poor fit] | – |
| COC(=O)CCCC1=CC2=C(c3ccccc3)C(=O)C(C)(OC(=O)C3CCCC3)C(=O)C2=CN1CC1CC1 (stereo unspecified) | inconclusive: 39.8 µM [inhibitor, partial curve] | – |
| COc1ccc(NS(=O)(=O)c2ccc(N3CCCC3)c(N)c2)cc1 | – | inactive: -11.7% |
| CCn1cc(C(=O)NCC(OC)OC)c(=O)c2cc(S(=O)(=O)N3CCC(C)CC3)ccc21 | – | inactive: -6.54% |
| CCCOc1ccc(-c2nc(N3CCN(C)CC3)c3ccccc3n2)cc1 | inconclusive: 39.8 µM [inhibitor, partial curve] | – |
| COc1ccc(NC(=O)NC(=O)c2cc(OCC(F)(F)F)ccc2OCC(F)(F)F)cc1 | inconclusive: 4.47 µM [inhibitor, partial curve] | – |
| O=C(NC1CCCCCC1)C(=S)N1CCOCC1 | inconclusive: 2.24 µM [inhibitor, partial curve] | – |
| O=C(Nc1ccc(Br)cc1F)c1nc[nH]c1C(=O)N1CCc2ccccc2C1 | inconclusive: 0.282 µM [inhibitor, full curve] | – |
| COc1cc(NC(=O)c2cncc(-c3ccc(C#N)cc3)c2)cc(C(=O)Nc2cccc(C(F)(F)F)c2)c1 | inconclusive: 0.631 µM [inhibitor, full curve, poor fit] | – |
| COc1ccc([N+](=O)[O-])c(S(=O)(=O)c2ccc(Cl)cc2)n1 | inconclusive: 10 µM [inhibitor, partial curve] | – |
| O=C1NNC(c2ccccc2)=N/C1=C\c1ccco1 | – | inactive: -18.5% |
| S=c1[nH]nc(Cn2c(-c3ccccn3)nc3ccccc32)n1-c1ccc2c(c1)OCCO2 | – | inactive: -14% |
| Cc1ccc(C(=O)NNC(=O)C2CCN(Cc3ccccc3)CC2)cc1 | – | inactive: -3.88% |
| O=C(Nc1cccc(F)c1)Nc1cccc(Cl)c1 | – | inactive: -6.29% |
| COc1cccc(NC(=O)CCc2c(C)nc3c4cccnc4nn3c2C)c1 | inconclusive: 35.5 µM [inhibitor, partial curve, poor fit] | – |
| Nc1ccc2c(c1)OCCOCCOCCOCCOCCO2 | inconclusive: 15.8 µM [inhibitor, partial curve] | – |
| CC1=CC2(O)OCCN(CCO)C2=CC1=O (stereo unspecified) | – | inactive: -18.3% |
